US20060222661A1
Results are given in words; binding and its absence hold for the method and conditions named. Some binding calls cover weakened binding; strength is not graded here.

Biological target: HCV E2 glycoprotein of genotype 1a, C-terminally truncated form (deletion of the C-terminal Ala 746 residue) (hepatitis C virus genotype 1a, strain H) (UniProt P27958)
Test: conclusion from hCD81-LEL precipitation and inhibition of HCVpp infection

B1: human CD81 (on Huh-7 cells and human primary hepatocytes) (receptor)
chain: MGVEGCTKCIKYLLFVFNFVFWLAGGVILGVALWLRHDPQTTNLLYLELGDKPAPNTFYVGIYILIAVGAVMMFVGFLGCYGAIQESQCLLGTFFTCLVILFACEVAAGIWGFVNKDQIAKDVKQFYDQALQQAVVDDDANNAKAVVKTFHETLDCCGSSTLTALTTSVLKNNLCPSGSNIISNLFKEDCHQKIDDLFSGKLYLIGIAAIVVAVIMIFEMILSMVLCCGIRNSSVY
For B1, the binding was “binds”.
